This assay concerns the target DHX9 helicase (mouse (endogenous in ESC)) (UniProt O70133). Description: co-IP; anti-DHX9 antibody on ESC lysates in NETN buffer with protease inhibitors, 4 °C overnight, Protein A or G magnetic beads; western blot developed with anti-HA antibody. (In western blotting, separated proteins are transferred to a membrane and probed.)

The chains behind the UniProt entries cited, without tags or fusion partners.
UniProt O70133: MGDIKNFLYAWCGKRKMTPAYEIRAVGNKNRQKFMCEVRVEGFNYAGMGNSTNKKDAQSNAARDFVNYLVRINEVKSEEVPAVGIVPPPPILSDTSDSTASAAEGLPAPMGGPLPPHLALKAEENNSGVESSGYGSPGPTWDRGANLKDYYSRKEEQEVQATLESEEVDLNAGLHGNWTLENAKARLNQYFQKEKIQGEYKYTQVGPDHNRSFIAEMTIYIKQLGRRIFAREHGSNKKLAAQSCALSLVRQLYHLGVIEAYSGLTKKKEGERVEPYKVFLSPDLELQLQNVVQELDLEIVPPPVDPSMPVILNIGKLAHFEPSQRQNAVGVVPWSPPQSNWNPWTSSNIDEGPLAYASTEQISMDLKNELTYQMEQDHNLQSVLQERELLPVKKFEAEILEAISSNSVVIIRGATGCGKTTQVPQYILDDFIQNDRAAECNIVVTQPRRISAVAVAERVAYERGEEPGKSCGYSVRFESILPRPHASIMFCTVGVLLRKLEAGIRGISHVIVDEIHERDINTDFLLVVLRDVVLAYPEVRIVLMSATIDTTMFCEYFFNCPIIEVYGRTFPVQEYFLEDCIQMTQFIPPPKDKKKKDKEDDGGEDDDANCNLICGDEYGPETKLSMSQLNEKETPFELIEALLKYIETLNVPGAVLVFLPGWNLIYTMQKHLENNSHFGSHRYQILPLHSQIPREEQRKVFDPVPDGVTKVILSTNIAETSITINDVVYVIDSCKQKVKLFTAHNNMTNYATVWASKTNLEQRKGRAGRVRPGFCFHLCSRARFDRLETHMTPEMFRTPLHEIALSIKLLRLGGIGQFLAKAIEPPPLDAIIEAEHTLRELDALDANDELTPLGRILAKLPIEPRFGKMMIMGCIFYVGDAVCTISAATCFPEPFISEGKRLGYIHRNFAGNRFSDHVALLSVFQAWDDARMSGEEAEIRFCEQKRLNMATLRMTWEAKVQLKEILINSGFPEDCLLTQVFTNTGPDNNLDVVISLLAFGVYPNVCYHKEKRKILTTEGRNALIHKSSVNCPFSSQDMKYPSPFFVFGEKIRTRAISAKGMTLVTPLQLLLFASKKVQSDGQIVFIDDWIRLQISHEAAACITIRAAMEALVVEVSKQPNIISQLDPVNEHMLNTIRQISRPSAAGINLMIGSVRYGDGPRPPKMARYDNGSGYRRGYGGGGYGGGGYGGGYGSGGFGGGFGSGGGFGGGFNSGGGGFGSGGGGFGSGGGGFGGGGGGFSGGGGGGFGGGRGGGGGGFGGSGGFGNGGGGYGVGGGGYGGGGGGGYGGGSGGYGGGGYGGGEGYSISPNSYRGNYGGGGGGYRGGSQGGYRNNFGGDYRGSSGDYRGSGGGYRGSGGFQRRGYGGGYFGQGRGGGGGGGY

These results are taken from publication PMC8217545.

These are yes or no findings as the source states them, for the method shown. Binding seen in cells or lysates may run through a third protein. Some binding calls cover weakened binding; strength is not graded here.

As for “HA-tagged DIDO3 (whole DIDO3) (from UniProt Q8C9B9-1 1-2256)”, the binding result is listed as “binds”.
